This is an account of results in PubChem BioAssay AID2685 (National Center for Advancing Translational Sciences (NCATS), 2010).

The other results are listed elsewhere or left out. Shown are side measurements of this screen, not its main read-out; they come without a call. Most of these compounds were active or inconclusive in the main read-out, so they are no random draw. Words in brackets tell the shape of the fitted curve; partial curves, single points and poor fits give uncertain potencies.

The nature of this assay: qHTS Assay for Lipid Storage Modulators in Drosophila S3 Cells.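 On cell number change: cells counted by Cell Tracker Red CMTPX staining in the red channel.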 To be noted: BODIPY lipid droplet fluorescence, 18-24 h; for cell number change: measured here: cell count max response, cells fed with added oleic acid. Put shortly: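 Drosophila S3 cells got compounds at several concentrations plus oleic acid (400 uM solution). Laser-scanning cytometry with 488 nm excitation read lipid droplets at 500-530 nm and cells at 575-640 nm. Percent activity was relative to 20 uM Triacsin C.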
(qHTS replaces the single test concentration by a dilution series.)

[1] abbreviates: measured here: cell number channel AC50, cells fed with added oleic acid.
The mark [2] stands for this setting: measured here: lipid fluorescence (Fed channel) AC50, cells fed with added oleic acid.

For the compound `CCn1nc(C)c(NC(=O)c2cc(Br)ccc2Cl)c1C`, the cell number change came to 20.3%.

With `O=C(NCC1CCCO1)c1cc2ccccc2[nH]1` (centres undefined), the cell number change turned out to be 0.249%. Besides, the AC50 – broadly, the concentration at which the activity in the assay is half-maximal – under setting [1] is 0.116 µM [falling, full curve, poor fit]. Turning to `O=C(Nc1nccs1)C1CC(=O)N(c2ccccc2)C1` (centres undefined), the cell number change came to 5.26%. Besides, under setting [2], the AC50 was 5.62 µM [rising, single point]. For `COc1ccccc1CCCNC(=O)C1CCC(=O)N(CCc2cccc(F)c2)C1` (centres undefined), the cell number change is -22.6%. For the same compound, the AC50 under setting [1] was 0.0891 µM [falling, full curve, poor fit]. The AC50 under setting [2] was 35.5 µM [falling, single point]. As for `Cc1cc(OC(=O)c2cc(C(F)(F)F)cc(C(F)(F)F)c2)c([N+](=O)[O-])c(=O)[nH]1`, the cell number change came out at 17.7%. The AC50 under setting [1] was 1.84 µM [rising, partial curve].

For the compound `CN(C(=O)c1cccs1)c1ccc(OCC(=O)Nc2ccc(C(=O)O)cc2)cc1`, the cell number change is -27.6%. In addition, the AC50 under setting [2] was 0.00461 µM [falling, full curve, poor fit]. Turning to `CCSc1nnc(-c2ccc(S(=O)(=O)N3CCCC3)cc2)n1C`, the cell number change was determined as 16.5%.

On to `CCN1C(=O)CC(N2CCN(c3ccc(C(=O)c4ccncc4)cc3)CC2)C1=O` (centres undefined), for which the cell number change was found to be 44.3%. Further, the AC50 under setting [1] was 20.6 µM [rising, single point]. On to `Cc1cc(O)c(C(=O)/C=C/c2ccccc2O)c(=O)o1`, for which the cell number change was -9.01%. For the same compound, under setting [1], the AC50 is 6.51 µM [rising, single point]. On to `CCOc1ccc(-c2c(C(=O)N/N=C/c3cccc(Br)c3)nnn2-c2nonc2N)cc1`, for which the cell number change was determined as 2.28%. Still for that read-out and setting: to `COc1ccc(C2C(C(N)=O)=C(C)Nc3nc(-c4ccccc4Cl)nn32)c(OC)c1` (centres undefined) belongs 9.53%. Consider `CC1CCCC(C)N1C(=O)COC(=O)c1n[nH]c(=O)c2ccccc12` (centres undefined), for which the cell number change stood at 5.41%. Also, under setting [1], the AC50 is 5.8 µM [rising, single point]. The AC50 under setting [2] is 4.11 µM [rising, partial curve, poor fit]. Consider `CCC1CCCCN1C1Sc2ccc(C(=O)OC)cc2NC1=O` (centres undefined), for which the AC50 under setting [2] was 3.26 µM [rising, single point]. As to `c1ccc(CN2CCC(Nc3nc(-c4ccccc4)nc4ccccc34)CC2)cc1`, the cell number change was -92.6%. The AC50 under setting [2] is 25.9 µM [falling, single point]. On to `CC(Sc1ccc(S(=O)(=O)N2CCN(C)CC2)cn1)C(=O)NC1CCCCC1` (centres undefined), for which the cell number change was -5.57%. Also, the AC50 under setting [2] is 0.82 µM [rising, full curve, poor fit]. Take `Cc1cc(C)nc(N(C#N)CC(=O)c2ccccc2)n1`: the cell number change is -5.55%. In addition, the AC50 under setting [2] was 2.06 µM [rising, partial curve].

As to `CCC(C)Oc1ccc(C(=O)Nc2ccc(CN3CCOCC3)cc2)cc1` (centres undefined), the cell number change is -1.4%.

Take `CCSc1nnc(NC(=O)COc2cccc3ccccc23)s1`: the cell number change was -33.1%. The AC50 under setting [1] was 5.8 µM [falling, full curve, poor fit]. Further, under setting [2], the AC50 is 29.1 µM [falling, single point]. As to `CCCn1c(N)c(C(=O)COC(=O)CCNS(=O)(=O)c2ccccc2F)c(=O)[nH]c1=O`, the cell number change came to 5.76%. The AC50 under setting [2] is 7.31 µM [falling, partial curve]. On to `O=C(CNC(=O)c1ccco1)N/N=C/c1ccc(O)cc1O`, for which the cell number change is -75.7%. Further, the AC50 under setting [1] was 25.9 µM [falling, partial curve]. In the case of `CCn1c(SCC(=O)Nc2nc(-c3ccc(C)cc3)cs2)nnc1-c1ccccc1`, the cell number change is -132%. Under setting [1], the half-maximal activity concentration (AC50) is 29.1 µM [falling, single point]. Further, the AC50 under setting [2] is 23.1 µM [falling, partial curve, poor fit]. Take `CN1CCCc2cc(C#N)c(=O)[nH]c21`: the cell number change was -36.3%. For the same compound, the AC50 under setting [1] is 0.58 µM [falling, partial curve]. Besides, the AC50 under setting [2] was 0.651 µM [falling, full curve]. For `O=C(CN1C(=O)NC2(CCCC2)C1=O)Nc1cccc(C(F)(F)F)c1`, the cell number change was 19.3%. Regarding `CC(=O)Oc1ccc(-c2nc(-c3cccnc3)no2)cc1`, the cell number change was 74.3%. The AC50 under setting [1] was 29.1 µM [rising, single point]. Further, the AC50 under setting [2] was 29.1 µM [rising, single point]. As for `COc1ccc(NC(=S)N2CCN(S(=O)(=O)c3ccc(C)cc3)CC2)cc1`, the cell number change is -8.91%. Under setting [2], the AC50 was 0.58 µM [rising, single point]. In the case of `Cc1ccc(S(=O)(=O)c2nc(S(C)(=O)=O)sc2N2CCOCC2)cc1`, the cell number change is -15.6%. The AC50 under setting [2] was 4.11 µM [falling, single point]. Regarding `Cn1c(=O)c(=O)n(C)c2cc([N+](=O)[O-])c(N3CCOCC3)cc21`, the cell number change is -11.8%. For the compound `COc1cccc2sc(N3CCN(c4nc5ccccc5s4)CC3)nc12`, the cell number change is -0.364%.

On to `COc1ccc(-c2ccccc2)cc1NCc1ccc(OC)c(OC)c1`, for which the cell number change came out at 28.3%. Further, under setting [2], the AC50 was 8.2 µM [rising, partial curve]. On to `COc1ccccc1NC(=O)c1ccc(NC(=O)c2ccc(=O)[nH]c2)cc1`, for which the cell number change is -6.43%. For `CN(CC(=O)Nc1ccccc1Cl)C(=O)COC(=O)c1ccc(C(F)(F)F)cc1`, the cell number change came to 35.9%. The AC50 under setting [1] is 25.9 µM [rising, single point]. Further, the AC50 under setting [2] is 25.9 µM [rising, single point]. Take `Cc1ccc(SC(c2ccc(C)cc2)C(Cn2cncn2)C(=O)c2ccccc2)cc1` (centres undefined): the cell number change is -4.64%. For the same compound, the AC50 under setting [1] was 0.13 µM [rising, full curve, poor fit]. `COc1ccc(CCCNC(=O)C2CCC(=O)N(Cc3ccc(Cl)cc3)C2)cc1` (centres undefined): the cell number change is -16.3%. For the compound `CC(c1ccccc1)c1nnc(N)s1` (centres undefined), the cell number change is 18.5%.

As for `NC(=O)Nc1ccc(C(=O)OCC(=O)NCc2ccc3c(c2)OCO3)cc1`, the cell number change came to 5.84%. Further, the AC50 under setting [2] was 3.26 µM [rising, partial curve]. For `CC(=O)N1CCc2c(sc(NC(=O)CCS(=O)(=O)c3ccccc3)c2C(N)=O)C1`, the cell number change is -14.5%. For the same compound, under setting [2], the AC50 is 8.91 µM [falling, partial curve, poor fit].

Turning to `CSc1nnc(-c2cc3c(s2)-c2ccccc2CC3)o1`, under setting [2], the AC50 was 29.1 µM [rising, single point].

`CC(C)[C@@H](C(=O)NCC1CCC(C(=O)O)CC1)n1nnc2ccccc2c1=O` (some centres undefined): the cell number change was -1.75%. Also, the AC50 under setting [2] was 0.58 µM [falling, full curve]. Turning to `Cc1cccc(-n2ncc3c(N)ncnc32)c1`, the cell number change was determined as 85.7%. Moreover, the AC50 under setting [1] was 29.1 µM [rising, single point]. `CCOc1ccc(S(=O)(=O)N2CCCCC2)cc1NC(=O)C1CSC2(C)CCC(=O)N12` (centres undefined): the cell number change turned out to be 13.4%. Also, under setting [2], the AC50 is 29.1 µM [rising, single point].
